# In PubChem BioAssay AID540275 (National Center for Advancing Translational Sciences (NCATS), 2011):
# Amino acid sequences for entries named in this document (tags omitted).
# UniProt Q8NER1, whole entry, looked up: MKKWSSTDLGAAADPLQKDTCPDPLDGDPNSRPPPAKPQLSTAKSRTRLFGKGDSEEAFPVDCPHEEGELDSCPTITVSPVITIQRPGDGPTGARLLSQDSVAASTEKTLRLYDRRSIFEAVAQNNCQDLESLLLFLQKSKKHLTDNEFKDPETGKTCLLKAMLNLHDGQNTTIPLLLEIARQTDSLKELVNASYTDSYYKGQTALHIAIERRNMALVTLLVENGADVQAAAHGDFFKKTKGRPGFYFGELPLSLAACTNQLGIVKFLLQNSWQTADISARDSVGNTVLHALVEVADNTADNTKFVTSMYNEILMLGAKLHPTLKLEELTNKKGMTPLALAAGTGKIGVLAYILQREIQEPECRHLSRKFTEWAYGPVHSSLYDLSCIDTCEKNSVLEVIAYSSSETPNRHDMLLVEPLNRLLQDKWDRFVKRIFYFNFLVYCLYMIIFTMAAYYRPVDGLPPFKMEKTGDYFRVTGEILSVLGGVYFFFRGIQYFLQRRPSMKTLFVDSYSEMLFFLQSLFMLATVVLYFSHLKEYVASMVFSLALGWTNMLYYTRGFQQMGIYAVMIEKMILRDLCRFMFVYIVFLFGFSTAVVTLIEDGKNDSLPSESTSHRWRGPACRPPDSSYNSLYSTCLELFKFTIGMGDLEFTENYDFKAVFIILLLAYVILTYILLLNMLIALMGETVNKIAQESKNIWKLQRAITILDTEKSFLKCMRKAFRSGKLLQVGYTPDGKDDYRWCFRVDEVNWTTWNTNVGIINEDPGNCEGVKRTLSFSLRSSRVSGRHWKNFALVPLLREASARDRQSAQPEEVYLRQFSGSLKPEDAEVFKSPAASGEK
# Among all 320,000 compounds or so, about 620 (0.19%) were called active. Inconclusive results, whose numbers are uncertain, are shown with a selection of clear calls. Rule as the data show it: active = activation above about 80%; inconclusive = between about 30% and that limit; inactive = weaker than that.
# Biological target: Transient receptor potential cation channel subfamily V member 1 (Homo sapiens) (UniProt Q8NER1)
# Assay: HTS Assay for Compounds that Act as Agonists of the Vanilloid Receptor 1; also: 0% is about no effect
# Details: TRPV1-expressing cells, Fluo-8 calcium influx, agonist mode; at 8.33 µM, hits give high values
# Procedure, shortened: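 Cells expressing TRPV1 were dye-loaded with Fluo-8 and read kinetically: 10 s baseline, 3 min after compound (agonist portion), then 2 min after EC20 capsaicin (allosteric enhancer portion). Calcium-bound dye fluorescence at 480/520 nm.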
row,Compound,activation
1,CCn1nc(C)cc1C(=O)NC1CCCc2c1cnn2-c1cc(F)cc(F)c1 (centres undefined),inconclusive: 65.3%
2,O=C1CCCN1CCC(=O)N1CCCC(Nc2ccc(F)c(F)c2)C1 (centres undefined),inactive: -1.18%
3,Cc1ccc(NC(=O)CS(=O)(=O)c2c[nH]c3ccccc23)c(C)c1,inconclusive: 30.3%
4,COc1cc(OC)cc(C(=O)Nc2cc(NC(=O)c3ccco3)ccc2OC)c1,inconclusive: 30.1%
5,O=C(c1cccs1)c1ccc(-c2cccs2)s1,inactive: 1.08%
6,Cc1ccc2nc(SCC(=O)NC3CCCC3)[nH]c2c1,inconclusive: 44.6%
7,Cc1nc(NC(=S)NC(=O)c2ccccc2)sc1C,inconclusive: 40%
8,O=C(CSc1nnc(-c2cccs2)n1C1CC1)NCC1CCCO1 (centres undefined),inactive: -5.08%
9,O=C(OCC(=O)C12CC3CC(CC(C3)C1)C2)c1cccnc1,inconclusive: 30.9%
10,COc1ccc(CNC(=O)c2cc(C3CC3)nc3c2cnn3C(C)C)cc1OC,inconclusive: 71.2%
11,CC1CC(C)CN(CCCNC(=O)c2ccc3c(c2)N(Cc2ccccc2)C(=O)c2ccccc2S3=O)C1 (centres undefined),inactive: -10.9%
12,C/C(=N\Nc1cccc(Cl)c1)C1(C)N(O)C(C)(C)C(c2ccco2)=[N+]1[O-] (centres undefined),inconclusive: 34%
13,COc1ccc(CC(=O)O/N=C(\N)c2ccccc2)cc1OC,inconclusive: 31.4%
14,O=C(NCCc1ccc(F)cc1)C1CCCCC1,inconclusive: 33.1%
15,Cc1cc(C)c(S(=O)(=O)N(CC(=O)N2CCCC2)C2CCCCC2)c(C)c1,inconclusive: 49.1%
16,COc1ccc(CN2CCc3c([nH]c4ccccc34)C2)c(OC)c1C,inactive: 13.5%
17,CC(C)(C)C(=O)NC(=S)Nc1ccc(Cc2ccncc2)cc1,inconclusive: 36.8%
18,C=CCSc1nsc(NC(=O)Nc2ccc(F)cc2)n1,inconclusive: 37.7%
19,COc1ccc(NC(=O)NCc2ccc(Cl)cc2)cc1,inconclusive: 37.4%
20,O=C1COc2ccc(C(=O)COC(=O)Cc3c(F)cccc3Cl)cc2N1,inactive: 17.4%

# Entries shown so far that have a thiophene ring, fused or not (two):
row,Compound,activation
5,O=C(c1cccs1)c1ccc(-c2cccs2)s1,inactive: 1.08%
8,O=C(CSc1nnc(-c2cccs2)n1C1CC1)NCC1CCCO1 (centres undefined),inactive: -5.08%

# (list continues)

row,Compound,activation
1,COc1ccc(-c2cc(C(=O)O)c3c(C)nn(-c4ccccn4)c3n2)cc1,inactive: 0.806%
2,CC(C)(C)SCCNC(=O)/C=C/c1ccc(F)cc1,inconclusive: 73.7%
3,Cn1cc(CCCC(=O)NCc2ccc(F)cc2)c2ccccc21,inconclusive: 62.6%
4,CC(C)(C)N(CC(=O)NC1CCCCC1)C(=O)CS(=O)CC(=O)Nc1ccc(F)cc1 (centres undefined),inconclusive: 43.9%
5,S=C(NCc1ccccc1)NCc1ccc(Cl)cc1,inconclusive: 71.5%
6,O=C(C1CCCN(Cc2ccc(Br)cc2)C1)N1CCCCC1 (centres undefined),inconclusive: 48.6%
7,COc1cccc(NC(=O)c2ccc3c(c2)CCCC3)c1,inconclusive: 66.9%
8,O=C1c2ccccc2-c2onc3ccc(N4CCCC4)c1c23,inconclusive: 37.1%
9,CC(Sc1nc(NC(C)(C)C)nc(N(C)C)n1)C(=O)Nc1ccccc1 (centres undefined),inconclusive: 39.7%
10,CC(CCN1CCOCC1)c1ccccc1 (centres undefined),inactive: 3.32%
11,O=C1c2cccc3cccc(c23)C(=O)N1c1cccnc1,inactive: -2.56%
12,O=S(=O)(c1ccccc1)N1CCN(c2cc(-c3ccccc3)nc3ncnn23)CC1,inactive: 2.13%
13,Cc1ccc(CCC(=O)Nc2ccc([N+](=O)[O-])cc2)o1,inconclusive: 66.7%
14,Cc1ccc(-c2cc(C(=O)N3CCCCCC3)no2)cc1,inconclusive: 50.9%
15,CC(C)(C)c1cc(C(c2cccnc2)N2CCN(CCO)CC2)cc(C(C)(C)C)c1O (centres undefined),inconclusive: 55.8%
16,O=C(NC1CCCCC1)C(c1ccc(F)cc1)N(Cc1ccc2c(c1)OCO2)C(=O)c1cnsn1 (centres undefined),inconclusive: 40.3%
17,CC(C)(C)c1cc2ncnc(N3CCCCC3)c2s1,inconclusive: 46.9%
18,O=C(Cc1cccs1)N(Cc1cccs1)C1(C(=O)NC2CCCCC2)CCCCC1,inconclusive: 30.2%
19,CCCn1c2ccccc2c2cnn(CC(=O)NC3CCC(C)CC3)c(=O)c21 (centres undefined),inactive: 10.5%
20,COc1ccc(-c2nn(-c3ccccc3)cc2C(=O)Nc2nccs2)cc1,inactive: 26.1%

row,Compound,activation
1,CCCCn1nc(NC(=O)CC(C)C)c2cc3cc(OC)ccc3nc21,inconclusive: 47%
2,Cc1ccc(N(CC(=O)NCC2CCCO2)S(=O)(=O)c2ccc(Cl)cc2)cc1C (centres undefined),inconclusive: 47.1%
3,CC(=O)N1c2ccc(S(=O)(=O)NCCC(=O)NC3CCCC(C)C3C)cc2CC1C (centres undefined),inactive: -4.78%
4,FC(F)(F)c1nnc(Nc2ccc(Cl)cc2)s1,inconclusive: 30.2%
5,Cc1occc1C(=O)NN=C1C2CC3CC(C2)CC1C3,inactive: 4.34%
6,O=C1CC(c2ccco2)CC2=C1C(c1ccc(O)cc1)n1nc(C(F)(F)F)nc1N2 (centres undefined),inactive: 0.672%
7,CCc1ccccc1NC(=O)CSc1nc2ccccc2n1CC(=O)N(C)C,inactive: 2.69%
8,Nc1nnc(SCCCC(=O)c2ccc(F)cc2)s1,inconclusive: 45.9%
9,CCOc1c(OC)cccc1C(=O)NCC1(c2ccccc2)CCCC1,inconclusive: 53.8%
10,COc1ccc2[nH]c(C(=O)Nc3ccc4c(c3)OCO4)cc2c1,inconclusive: 65.3%
11,CC(C)OC(=O)CSc1nc(N)c(C#N)cc1C#N,inconclusive: 50.7%
12,CC(C)CC(=O)Nc1c2c(nn1-c1cccc(Cl)c1)CS(=O)C2 (centres undefined),inactive: 8.69%
13,Cc1nc(NC(=O)/C=C/c2ccco2)sc1C,inconclusive: 38%
14,C[C@H](NC(=O)c1nc[nH]c1C(=O)NCCCCCNC(=O)OC(C)(C)C)c1ccccc1,inconclusive: 43.6%
15,O=C(C1=NN(c2ccccc2)C2C(=O)N(c3ccccc3)C(=O)C12)c1ccccc1 (centres undefined),inconclusive: 32.5%
16,Cc1ccc(NC(=O)C(C)N2CCc3ccccc3C2)cc1 (centres undefined),inactive: 18.3%
17,Cc1ccc(NC(=O)c2cc(=O)c3ccccc3o2)cc1S(=O)(=O)N1CCCCC1,inconclusive: 41.2%
18,Cc1nc(NC(=O)c2cccs2)ccc1Br,inconclusive: 34.8%
19,Cc1ccc(C)c(OCCCC(=O)Nc2ccccc2C(N)=O)c1,inconclusive: 67.4%
